PubChem BioAssay AID686938 – Drosophila RNAi Screening Center, 2013
The deposit covers about 23,000 reagents; this is a random part of those that have a named target and a result. Over the whole deposit, 75 (0.33%) got an active call. 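Raw plate signals without normalisation; calls rest on plate z-scores that were not deposited; ratio present for only 364 wells.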 Names joined by + are all predicted targets of the reagent. The record does not give: the dose of the treatment.

Test: 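Knock-downs reducing store-operated calcium influx in Drosophila cells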 (primary screen)
Cell system: Drosophila S2R+ cells
Reagents: long dsRNA against Drosophila genes, about 0.25 µg dsRNA per well, roughly 10,000 cells
Timing: 5 days of knock-down before the calcium assay
Conditions: thapsigargin (SERCA pump blocker) to empty calcium stores; entry signal taken 4 min after adding it
Measured: 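Duplicate raw fluo-4 intensities per well from a plate reader, at rest and four minutes after thapsigargin emptied calcium stores; entry-to-rest ratio filled for only some wells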
Scale: calcium entry signal: higher = stronger calcium signal after store depletion; resting calcium signal: higher = higher resting calcium signal
Active means: 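Hit if the duplicate-averaged plate z-score for entry over resting signal is under −3; wells with weak total dye signal (Fmax z < −2) or more than 5 off-targets removed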
Calls: active = strongly reduced calcium entry; inactive = no strong reduction

The opening 4 entries, ahead of the listing:
| gene knocked down | DRSC id | calcium entry signal, replicate 1 (fluorescence units) | calcium entry signal, replicate 2 (fluorescence units) | resting calcium signal, replicate 1 (fluorescence units) | resting calcium signal, replicate 2 (fluorescence units) | call |
| --- | --- | --- | --- | --- | --- | --- |
| Fis1 | DRSC07772 | 3.04e7 | 3.47e7 | 1.60e7 | 1.65e7 | inactive |
| CG11112 | DRSC06038 | 3.38e7 | 3.72e7 | 1.58e7 | 1.64e7 | inactive |
| CG12016 + Dpm2 | DRSC08224 | 3.14e7 | 2.16e7 | 2.28e7 | 1.12e7 | inactive |
| prc | DRSC11385 | 2.88e7 | 3.85e7 | 1.58e7 | 1.80e7 | inactive |

Results, repeating the preview:
| gene knocked down | DRSC id | calcium entry signal, replicate 1 (fluorescence units) | calcium entry signal, replicate 2 (fluorescence units) | resting calcium signal, replicate 1 (fluorescence units) | resting calcium signal, replicate 2 (fluorescence units) | call |
| --- | --- | --- | --- | --- | --- | --- |
| Fis1 | DRSC07772 | 3.04e7 | 3.47e7 | 1.60e7 | 1.65e7 | inactive |
| CG11112 | DRSC06038 | 3.38e7 | 3.72e7 | 1.58e7 | 1.64e7 | inactive |
| CG12016 + Dpm2 | DRSC08224 | 3.14e7 | 2.16e7 | 2.28e7 | 1.12e7 | inactive |
| prc | DRSC11385 | 2.88e7 | 3.85e7 | 1.58e7 | 1.80e7 | inactive |
| tut | DRSC08909 | 1.96e7 | 2.81e7 | 1.13e7 | 1.23e7 | inactive |
| CG3045 | DRSC04331 | 3.65e7 | – | 1.80e7 | – | inactive |
| ACXB | DRSC00845 | 4.88e7 | 3.05e7 | 2.24e7 | 1.51e7 | inactive |
| CG34309 | DRSC14838 | 3.08e7 | 4.46e7 | 1.50e7 | 6.65e7 | inactive |
| TwdlP | DRSC14734 | 1.93e7 | 3.86e7 | 1.09e7 | 1.71e7 | inactive |
| Osi2 | DRSC12174 | 4.01e7 | 3.75e7 | 1.99e7 | 1.69e7 | inactive |
| CG13428 | DRSC06390 | 5.28e7 | 3.34e7 | 2.16e7 | 1.64e7 | inactive |
| nrm | DRSC11597 | 3.94e7 | 3.30e7 | 2.03e7 | 1.69e7 | inactive |
| nrm | DRSC11599 | 3.18e7 | 3.27e7 | 1.73e7 | 1.58e7 | inactive |
| nrm | DRSC11897 | 2.82e7 | 4.70e7 | 1.33e7 | 1.92e7 | inactive |
| CG30154 | DRSC05889 | 2.24e7 | 4.10e7 | 1.17e7 | 1.84e7 | inactive |
| jef | DRSC06198 | 2.59e7 | 4.34e7 | 1.33e7 | 1.93e7 | inactive |
| CG13029 | DRSC09909 | 5.10e7 | 7.72e7 | 2.45e7 | 2.79e7 | inactive |
| CG17633 | DRSC02631 | 3.59e7 | 4.12e7 | 1.70e7 | 1.83e7 | inactive |
| Pfdn1 | DRSC02325 | 3.84e7 | 3.19e7 | 1.89e7 | 1.57e7 | inactive |
| CG16863 | DRSC01892 | 4.80e7 | 2.81e7 | 2.09e7 | 1.33e7 | inactive |
| CG15042 | DRSC19618 | 3.94e7 | 3.36e7 | 2.06e7 | 1.56e7 | inactive |
| CG34249 (retired record) | DRSC09431 | 5.11e7 | 3.89e7 | 2.24e7 | 2.03e7 | inactive |
| CG13917 | DRSC08386 | 3.16e7 | 3.87e7 | 1.54e7 | 1.85e7 | inactive |
| GNBP3 | DRSC11170 | 3.43e7 | 4.74e7 | 1.59e7 | 1.93e7 | inactive |
| ATPsynepsilonL | DRSC14548 | 2.68e7 | 2.73e7 | 1.34e7 | 1.47e7 | inactive |
| CG31457 | DRSC22935 | 5.35e7 | 4.17e7 | 2.79e7 | 2.00e7 | inactive |
| CG1806 | DRSC19787 | 4.10e7 | 4.08e7 | 1.94e7 | 1.85e7 | inactive |
| qvr | DRSC05280 | 4.14e7 | 5.41e7 | 2.16e7 | 2.23e7 | inactive |
| Caf1-55 | DRSC16596 | 2.76e7 | 3.38e7 | 1.38e7 | 1.67e7 | inactive |
| CG1662 | DRSC19754 | 4.08e7 | 4.39e7 | 1.77e7 | 1.88e7 | inactive |
| fd3F | DRSC17843 | 1.44e7 | 2.50e7 | 8.44e6 | 1.37e7 | inactive |
| fd3F | DRSC23032 | 4.11e7 | 3.59e7 | 2.06e7 | 1.68e7 | inactive |
| CG8326 | DRSC20103 | 3.47e7 | 3.20e7 | 1.69e7 | 1.59e7 | inactive |
| janB | DRSC16973 | 3.63e7 | 5.38e7 | 1.95e7 | 2.27e7 | inactive |
| RpL22-like | DRSC04582 | 2.19e7 | 3.00e7 | 1.22e7 | 1.29e7 | inactive |
| VhaPPA1-2 | DRSC16176 | 2.94e7 | 6.43e7 | 1.50e7 | 6.95e7 | inactive |
| eIF4G2 | DRSC14207 | 3.94e7 | 3.22e7 | 1.96e7 | 1.51e7 | inactive |
| eIF4G2 | DRSC21739 | 2.31e7 | 3.64e7 | 1.25e7 | 1.79e7 | inactive |
| CG14710 | DRSC14933 | 3.22e7 | 3.54e7 | 1.48e7 | 1.59e7 | inactive |
| RtcB | DRSC03280 | 5.12e7 | 5.03e7 | 2.27e7 | 1.95e7 | inactive |
